Results from PubChem BioAssay AID1259354 (Paczesny and Yang Labs, IUPUI and University of Michigan, 2018).
Among all 78,000 compounds or so, about 1,800 (2.3%) were called active. The shares of active, inactive and inconclusive entries below differ from those in the screen. Cut-off read from the data, not from the text of the source: active = inhibition above about 30%; inconclusive = mostly about 10% to 28%; inactive = weaker than that.

Sequences of proteins named here, by UniProt entry; tags and fusion partners are left off. A change or cut given only in a name is not applied to a line headed by its entry.
UniProt Q01638: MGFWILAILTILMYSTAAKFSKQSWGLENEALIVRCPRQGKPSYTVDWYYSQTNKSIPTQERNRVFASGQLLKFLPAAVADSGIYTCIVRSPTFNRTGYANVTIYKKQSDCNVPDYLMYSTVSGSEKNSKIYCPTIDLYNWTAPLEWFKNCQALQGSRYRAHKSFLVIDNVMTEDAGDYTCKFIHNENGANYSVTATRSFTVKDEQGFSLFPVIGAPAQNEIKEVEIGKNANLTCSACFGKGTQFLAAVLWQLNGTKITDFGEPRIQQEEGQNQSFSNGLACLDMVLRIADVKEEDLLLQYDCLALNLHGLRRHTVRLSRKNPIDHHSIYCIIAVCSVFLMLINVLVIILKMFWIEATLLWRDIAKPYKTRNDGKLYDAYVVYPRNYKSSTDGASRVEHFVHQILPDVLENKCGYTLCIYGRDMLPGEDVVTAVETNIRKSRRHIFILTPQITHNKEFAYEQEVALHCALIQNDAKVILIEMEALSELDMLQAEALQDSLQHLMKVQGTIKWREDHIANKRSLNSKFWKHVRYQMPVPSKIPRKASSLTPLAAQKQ

molecular target: Interleukin-1 receptor-like 1 (Homo sapiens) (UniProt Q01638); assay: blocks human ST2 binding to IL-33, primary screen, biochemical, AlphaLISA (AID 1259354); settings: AlphaLISA ST2-Fc/biotin-IL-33 interaction, 1 h; at 17 µM, stronger effect = higher value

Row | SMILES | inhibition
1 | O=c1c(Oc2ccccc2)c(C(F)(F)F)oc2c(O)c(O)ccc12 | inactive
2 | O=C(N1CCCC1)C1(S(=O)(=O)c2ccc(Cl)cc2)CC1 | inconclusive: 17%
3 | CCSc1nnc(NC(=O)CN(C)Cc2cnn(C)c2C)s1 | inconclusive: 11%
4 | CC(C)(C)c1ccc(-c2cc(C[C@H]3CNCC[C@H]3CC(=O)NCCN3CCOCC3)no2)cc1 | inconclusive: 13%
5 | Cc1csc(C(C)N(C)Cc2cn[nH]c2-c2ccc(-c3ccccc3)cc2)n1 (stereo not given) | inactive
6 | Cc1ccc(C(N)=NC(=NS(=O)(=O)c2ccccc2)c2ccccc2)cc1 | inactive
7 | COc1ccc(CN2C(=Nc3ccc(OC)cc3)S[C@H]3[C@@H]2[C@@H](O)[C@H](O)C[C@@H]3C(N)=O)cc1 | inconclusive: 13%
8 | Cc1ccc(N2CC(NC(=O)c3cccs3)CC2=O)cc1 (stereo not given) | inconclusive: 13%
9 | O=S(=O)(NCCCSC1CCCCC1)c1ccc(Br)cc1 | inconclusive: 11%
10 | Cc1ccc(-c2noc([C@@H]3C[C@H](NS(=O)(=O)c4ccc(Cl)cc4)CN3C)n2)cc1 | inconclusive: 12%
11 | C[C@H]1[C@@H]2[C@@H](O)[C@H]([C@H](C)C(=O)NCCN3CCOCC3)CC[C@@]2(C)CC[C@@H]1NC(=O)C1CC1 | inconclusive: 15%
12 | COc1ccccc1-n1c(SCC(=O)NCc2ccc(F)cc2)nc2c(c1=O)SCC2 | inconclusive: 17%
13 | Brc1cnc2nc(COc3ccccc3)[nH]c2c1 | active: 35%
14 | O=C(CSc1nc2ccccc2s1)Nc1ccccc1Cl | inactive
15 | COc1ccc(C(CC#N)C2CCOC(C)(C)C2)cc1 (stereo not given) | inactive
16 | Cc1ccc(NCC2OCc3ccccc3CO2)cc1 | active: 97%
17 | O=C(Nc1c(C(=O)Nc2ccc(F)cc2)cnn1-c1ccccc1)c1ccccc1F | inconclusive: 11%
18 | Cn1c(SCc2ccc(Br)cc2)nnc1-c1ccccc1O | inconclusive: 22%
19 | CCOc1ccc(-n2c3nc(=O)n(C)c(=O)c-3cc3ccccc32)cc1 | inactive
20 | Nc1c(C(=O)Nc2cccc(C(F)(F)F)c2)sc2nc3c(cc12)CCCCC3 | active: 42%

3 compounds already listed, sorted by heavy-atom count, rising.
Row | SMILES | inhibition
13 | Brc1cnc2nc(COc3ccccc3)[nH]c2c1 | active: 35%
16 | Cc1ccc(NCC2OCc3ccccc3CO2)cc1 | active: 97%
4 | CC(C)(C)c1ccc(-c2cc(C[C@H]3CNCC[C@H]3CC(=O)NCCN3CCOCC3)no2)cc1 | inconclusive: 13%

Additional records follow:

Row | SMILES | inhibition
21 | COc1cccc(-c2cc(CNS(=O)(=O)NCc3ccccc3)on2)c1 | inactive
22 | CCc1ccc(C2CC(c3c(F)cccc3Cl)n3ncnc3N2)cc1 (stereo not given) | inactive
23 | COc1ccc(-n2ncc3c(Nc4ccccc4OC)ncnc32)cc1 | inactive
24 | CCN1CCCC1CNC(=O)C1CCN(c2ccc(-c3cccs3)nn2)CC1 (stereo not given) | inconclusive: 11%
25 | CCN(CC1CCOCC1)C(=O)C1CCCN(Cc2ccco2)C1 (stereo not given) | inconclusive: 17%
26 | CCOc1ccccc1NC(=O)c1cc2cc3ccc(OC)cc3nc2s1 | inconclusive: 24%
27 | CCn1nc(CC(C)C)cc1C(=O)N1Cc2cnn(CCO)c2C1 | inactive
28 | COc1ccc(CNC(=O)C2(S(=O)(=O)c3ccc(Cl)cc3)CC2)cc1 | inconclusive: 22%
29 | O=C(Nc1sc2c(c1C(=O)Nc1ccc(Br)cc1)CCC2)c1ccco1 | inconclusive: 17%
30 | COc1ccccc1-n1c(SCC(=O)NCCc2ccccc2)nc2c(c1=O)SCC2 | inconclusive: 19%
31 | O=C(CCn1cc(Cl)cn1)NC1CCC(n2cnnc2)CC1 (stereo not given) | inactive
32 | CCOC(=O)c1c(NC(=O)c2cc(OC)cc(OC)c2)sc2c1CCCCC2 | inactive
33 | CC(C)Cn1cc(C(=O)NCCC2=CCCCC2)c2c3ccccc3n(C)c2c1=O | inconclusive: 11%
34 | O=c1nc(/C=C/c2cc3c(cc2[N+](=O)[O-])OCO3)cc(C(F)(F)F)[nH]1 | inactive
35 | CN(CC1CC(=O)N(C(C)(C)C)C1)c1nccc(CCC(F)(F)F)n1 (stereo not given) | inconclusive: 12%
36 | Cc1ccc2c(N)c(C(N)=O)sc2n1 | inconclusive: 15%
37 | Cc1nn(-c2ccc(C(C)C)cc2)c(C)c1[C@@H]1C=C[C@@H](NC(=S)Nc2cccc(C#N)c2)C1 | inconclusive: 21%
38 | N#Cc1nc(COc2ccccc2Cl)oc1NCCCn1ccnc1 | active: 45%
39 | CCOc1ccccc1-c1cncc2ccccc12 | inactive
40 | O=C(c1ccc(F)cc1)N1CC[C@@H](c2ccc3ccccc3c2)[C@H](O)C1 | inconclusive: 13%

A run of entries from the list above:
Row | SMILES | inhibition
35 | CN(CC1CC(=O)N(C(C)(C)C)C1)c1nccc(CCC(F)(F)F)n1 (stereo not given) | inconclusive: 12%
36 | Cc1ccc2c(N)c(C(N)=O)sc2n1 | inconclusive: 15%

Following part

Row | SMILES | inhibition
41 | O=C(Nc1cccc([N+](=O)[O-])c1)c1cc(I)ccc1Cl | inactive
42 | CCC(NC(=O)c1cc(CN2CCOCC2)on1)c1ccnn1C (stereo not given) | inactive
43 | Cn1c(=O)[nH]c(=O)c2c1nc(N1CCCCC1)n2CCSc1nc2ccccc2s1 | inactive
44 | Cc1cc(C)n(-c2ccc(NC(=O)C3CCCCN3C(=O)CCc3cccs3)cc2)n1 (stereo not given) | inconclusive: 20%
45 | CCN1CCN(S(=O)(=O)c2ccc(Br)cc2)CC1 | inconclusive: 12%
46 | O=C(c1cccc2nccnc12)N1CCCC2(C1)C(=O)Nc1ccccc12 (stereo not given) | inconclusive: 12%
47 | CCc1nc2nc(C)[nH]n2c(=O)c1NC(=O)Nc1cccc(F)c1 | inconclusive: 19%
48 | CCCOc1ccccc1/C=C1/C(=O)N=C(N)N1C | inactive
49 | COc1ccc(Cl)cc1NC(=O)CSc1nc2ccccc2s1 | inactive
50 | COc1ccc(CC(=O)Nc2cccc([N+](=O)[O-])c2)cc1 | inconclusive: 13%
51 | CN(Cc1cccc(O)c1)C(=O)C1CCCN(C2CCN(C(=O)C3CC3)CC2)C1 (stereo not given) | inconclusive: 12%
52 | Fc1ccc(OCc2nnc([C@H]3CCN(Cc4cccnc4)C3)o2)cc1 | inconclusive: 16%
53 | CCOc1cc(/C=C2/NC(=O)NC2=O)ccc1OCc1ccc(Cl)cc1Cl | inconclusive: 19%
54 | N#Cc1cccc(NC(=O)Nc2ccc(=O)n3c2[C@@H]2C[C@@H](CN(C(=O)COc4ccccc4)C2)C3)c1 | inconclusive: 15%
55 | C=CCC1(OC)CCN(C(=O)c2cc(COc3ccccc3)on2)CC1 | inconclusive: 18%
56 | CCC(NC(=O)c1nc2ccccc2c(=O)[nH]1)c1nc(C)c(C)s1 (stereo not given) | inconclusive: 10%
57 | O=C1CCCC2=C1C(c1ccccc1)n1nc(SCc3ccccc3F)nc1N2 (stereo not given) | inconclusive: 16%
58 | COc1cc(/C=C2/C(=O)NN(c3ccc(C)c(Cl)c3)C2=O)ccc1O | inconclusive: 23%
59 | O=C(COc1ccc(Cl)cc1Cl)Nc1cccc(Cl)c1Cl | inactive
60 | Cc1ccc2[nH]c(C(=O)O)c(CN3CCN(c4nc(C)cnc4C)CC3)c2c1 | inactive
